Results are given in words; binding and its absence hold for the method and conditions named. In cells and extracts the contact can be indirect. Here binding means that the protein was enriched with, or labelled near, the bait; the list need not be complete.

Amino acid sequences for entries named in this document (tags omitted). A change or cut given only in a name is not applied to a line headed by its entry.
UniProt Q9VQ93: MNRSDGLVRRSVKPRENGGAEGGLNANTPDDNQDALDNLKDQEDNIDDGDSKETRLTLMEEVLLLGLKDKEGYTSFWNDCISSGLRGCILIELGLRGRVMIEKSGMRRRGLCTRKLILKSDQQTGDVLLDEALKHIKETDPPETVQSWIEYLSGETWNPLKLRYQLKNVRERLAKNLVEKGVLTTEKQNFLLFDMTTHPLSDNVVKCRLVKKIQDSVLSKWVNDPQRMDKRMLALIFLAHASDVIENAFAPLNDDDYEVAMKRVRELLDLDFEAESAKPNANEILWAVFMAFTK
UniProt Q9VGL9: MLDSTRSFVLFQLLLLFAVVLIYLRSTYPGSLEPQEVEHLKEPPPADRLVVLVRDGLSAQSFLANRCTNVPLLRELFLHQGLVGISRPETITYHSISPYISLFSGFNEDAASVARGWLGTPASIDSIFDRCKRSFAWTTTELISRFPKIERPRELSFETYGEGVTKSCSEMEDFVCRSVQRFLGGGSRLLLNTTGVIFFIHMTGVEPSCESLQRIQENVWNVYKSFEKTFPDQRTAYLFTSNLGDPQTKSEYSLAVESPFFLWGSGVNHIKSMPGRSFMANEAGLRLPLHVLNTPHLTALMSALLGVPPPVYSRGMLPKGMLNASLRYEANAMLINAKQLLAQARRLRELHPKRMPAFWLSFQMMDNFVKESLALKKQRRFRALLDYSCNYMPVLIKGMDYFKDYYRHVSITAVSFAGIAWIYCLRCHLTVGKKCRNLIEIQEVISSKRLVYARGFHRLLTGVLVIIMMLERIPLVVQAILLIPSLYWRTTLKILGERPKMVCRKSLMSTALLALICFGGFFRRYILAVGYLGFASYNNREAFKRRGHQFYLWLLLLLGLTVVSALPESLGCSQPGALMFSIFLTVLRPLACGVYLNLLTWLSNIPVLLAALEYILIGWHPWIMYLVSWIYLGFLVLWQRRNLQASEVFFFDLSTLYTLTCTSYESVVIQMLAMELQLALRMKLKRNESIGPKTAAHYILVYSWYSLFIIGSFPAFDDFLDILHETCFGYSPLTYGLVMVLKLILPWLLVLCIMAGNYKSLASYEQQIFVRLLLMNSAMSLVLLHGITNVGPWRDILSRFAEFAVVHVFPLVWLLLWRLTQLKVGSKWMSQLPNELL
UniProt Q24117: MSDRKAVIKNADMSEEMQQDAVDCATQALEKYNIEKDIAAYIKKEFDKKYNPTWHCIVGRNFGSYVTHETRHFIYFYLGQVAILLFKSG
UniProt Q9V3A8: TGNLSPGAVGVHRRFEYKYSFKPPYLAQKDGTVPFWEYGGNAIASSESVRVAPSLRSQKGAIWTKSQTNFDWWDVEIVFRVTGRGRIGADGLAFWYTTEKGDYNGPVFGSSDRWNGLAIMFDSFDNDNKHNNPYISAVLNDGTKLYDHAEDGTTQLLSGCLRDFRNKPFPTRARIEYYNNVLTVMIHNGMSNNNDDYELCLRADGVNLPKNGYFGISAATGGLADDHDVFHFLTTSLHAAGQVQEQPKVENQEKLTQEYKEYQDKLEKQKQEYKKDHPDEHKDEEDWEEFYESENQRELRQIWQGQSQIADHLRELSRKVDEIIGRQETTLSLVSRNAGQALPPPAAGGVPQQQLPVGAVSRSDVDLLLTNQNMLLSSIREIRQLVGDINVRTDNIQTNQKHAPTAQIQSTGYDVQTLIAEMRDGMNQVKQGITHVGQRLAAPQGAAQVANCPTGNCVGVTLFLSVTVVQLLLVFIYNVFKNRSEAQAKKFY
UniProt Q7K110: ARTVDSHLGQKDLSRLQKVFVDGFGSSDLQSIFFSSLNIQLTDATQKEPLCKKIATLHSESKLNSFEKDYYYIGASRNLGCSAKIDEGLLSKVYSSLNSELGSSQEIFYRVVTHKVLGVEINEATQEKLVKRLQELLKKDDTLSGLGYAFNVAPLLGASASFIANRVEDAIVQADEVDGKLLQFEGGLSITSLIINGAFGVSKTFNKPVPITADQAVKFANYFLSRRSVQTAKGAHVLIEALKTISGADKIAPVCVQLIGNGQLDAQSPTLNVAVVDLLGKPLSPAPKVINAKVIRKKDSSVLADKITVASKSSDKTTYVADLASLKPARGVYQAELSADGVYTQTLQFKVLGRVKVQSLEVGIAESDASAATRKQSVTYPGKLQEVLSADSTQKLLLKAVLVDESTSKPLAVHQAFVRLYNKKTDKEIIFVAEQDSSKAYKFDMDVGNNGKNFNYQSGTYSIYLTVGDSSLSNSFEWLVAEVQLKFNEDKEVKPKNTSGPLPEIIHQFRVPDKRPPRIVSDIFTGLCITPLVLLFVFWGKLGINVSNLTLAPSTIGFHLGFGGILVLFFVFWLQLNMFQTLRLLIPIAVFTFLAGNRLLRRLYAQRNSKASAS
UniProt O18332: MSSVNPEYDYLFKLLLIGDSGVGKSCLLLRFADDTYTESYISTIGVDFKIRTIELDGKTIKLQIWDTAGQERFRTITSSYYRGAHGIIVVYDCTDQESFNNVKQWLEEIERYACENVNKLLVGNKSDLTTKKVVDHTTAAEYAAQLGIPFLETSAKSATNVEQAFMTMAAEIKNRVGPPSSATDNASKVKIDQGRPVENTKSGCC
UniProt O18338: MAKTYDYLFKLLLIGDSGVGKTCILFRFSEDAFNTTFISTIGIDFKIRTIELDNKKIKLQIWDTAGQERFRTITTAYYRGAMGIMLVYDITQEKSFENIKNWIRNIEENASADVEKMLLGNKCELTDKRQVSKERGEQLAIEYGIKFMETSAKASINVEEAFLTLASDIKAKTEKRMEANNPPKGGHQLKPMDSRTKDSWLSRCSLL
UniProt Q86BK8: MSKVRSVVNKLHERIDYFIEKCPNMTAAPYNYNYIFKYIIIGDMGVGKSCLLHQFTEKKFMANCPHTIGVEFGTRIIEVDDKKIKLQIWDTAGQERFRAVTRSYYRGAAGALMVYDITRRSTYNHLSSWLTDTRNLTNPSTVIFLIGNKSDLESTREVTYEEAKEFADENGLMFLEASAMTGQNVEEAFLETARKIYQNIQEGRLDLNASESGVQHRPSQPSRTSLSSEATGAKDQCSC
UniProt A1Z7J7: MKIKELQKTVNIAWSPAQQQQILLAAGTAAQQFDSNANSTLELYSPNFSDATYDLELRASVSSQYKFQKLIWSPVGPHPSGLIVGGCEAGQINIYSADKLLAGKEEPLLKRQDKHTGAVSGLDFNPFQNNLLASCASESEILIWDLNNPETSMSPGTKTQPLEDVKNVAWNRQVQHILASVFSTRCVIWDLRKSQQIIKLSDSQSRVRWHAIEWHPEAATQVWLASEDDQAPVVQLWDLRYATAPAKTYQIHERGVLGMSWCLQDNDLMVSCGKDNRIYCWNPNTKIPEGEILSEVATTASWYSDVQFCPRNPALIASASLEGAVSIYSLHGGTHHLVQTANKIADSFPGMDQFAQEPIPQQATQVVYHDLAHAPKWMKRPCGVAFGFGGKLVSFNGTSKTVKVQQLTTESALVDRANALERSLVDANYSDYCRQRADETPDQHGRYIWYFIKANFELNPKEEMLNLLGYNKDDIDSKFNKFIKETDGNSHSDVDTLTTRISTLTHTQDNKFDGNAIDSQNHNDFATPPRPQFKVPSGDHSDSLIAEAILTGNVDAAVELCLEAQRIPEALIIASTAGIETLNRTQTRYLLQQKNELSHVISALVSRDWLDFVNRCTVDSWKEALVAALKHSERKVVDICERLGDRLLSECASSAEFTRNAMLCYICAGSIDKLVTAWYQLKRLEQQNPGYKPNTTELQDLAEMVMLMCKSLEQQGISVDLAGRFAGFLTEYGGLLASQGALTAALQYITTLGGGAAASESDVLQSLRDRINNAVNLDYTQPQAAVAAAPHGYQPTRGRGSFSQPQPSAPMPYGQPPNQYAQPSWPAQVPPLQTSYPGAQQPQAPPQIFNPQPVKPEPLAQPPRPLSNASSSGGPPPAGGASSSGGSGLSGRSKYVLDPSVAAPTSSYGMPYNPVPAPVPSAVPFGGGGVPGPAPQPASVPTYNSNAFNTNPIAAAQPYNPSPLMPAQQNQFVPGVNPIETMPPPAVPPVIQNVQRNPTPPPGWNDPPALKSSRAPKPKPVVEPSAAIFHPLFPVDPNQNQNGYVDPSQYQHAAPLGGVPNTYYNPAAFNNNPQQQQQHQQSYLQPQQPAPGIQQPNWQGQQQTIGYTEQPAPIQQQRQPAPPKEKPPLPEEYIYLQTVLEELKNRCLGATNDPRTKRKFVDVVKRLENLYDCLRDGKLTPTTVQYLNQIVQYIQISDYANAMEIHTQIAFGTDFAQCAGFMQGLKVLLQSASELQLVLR
UniProt P29742: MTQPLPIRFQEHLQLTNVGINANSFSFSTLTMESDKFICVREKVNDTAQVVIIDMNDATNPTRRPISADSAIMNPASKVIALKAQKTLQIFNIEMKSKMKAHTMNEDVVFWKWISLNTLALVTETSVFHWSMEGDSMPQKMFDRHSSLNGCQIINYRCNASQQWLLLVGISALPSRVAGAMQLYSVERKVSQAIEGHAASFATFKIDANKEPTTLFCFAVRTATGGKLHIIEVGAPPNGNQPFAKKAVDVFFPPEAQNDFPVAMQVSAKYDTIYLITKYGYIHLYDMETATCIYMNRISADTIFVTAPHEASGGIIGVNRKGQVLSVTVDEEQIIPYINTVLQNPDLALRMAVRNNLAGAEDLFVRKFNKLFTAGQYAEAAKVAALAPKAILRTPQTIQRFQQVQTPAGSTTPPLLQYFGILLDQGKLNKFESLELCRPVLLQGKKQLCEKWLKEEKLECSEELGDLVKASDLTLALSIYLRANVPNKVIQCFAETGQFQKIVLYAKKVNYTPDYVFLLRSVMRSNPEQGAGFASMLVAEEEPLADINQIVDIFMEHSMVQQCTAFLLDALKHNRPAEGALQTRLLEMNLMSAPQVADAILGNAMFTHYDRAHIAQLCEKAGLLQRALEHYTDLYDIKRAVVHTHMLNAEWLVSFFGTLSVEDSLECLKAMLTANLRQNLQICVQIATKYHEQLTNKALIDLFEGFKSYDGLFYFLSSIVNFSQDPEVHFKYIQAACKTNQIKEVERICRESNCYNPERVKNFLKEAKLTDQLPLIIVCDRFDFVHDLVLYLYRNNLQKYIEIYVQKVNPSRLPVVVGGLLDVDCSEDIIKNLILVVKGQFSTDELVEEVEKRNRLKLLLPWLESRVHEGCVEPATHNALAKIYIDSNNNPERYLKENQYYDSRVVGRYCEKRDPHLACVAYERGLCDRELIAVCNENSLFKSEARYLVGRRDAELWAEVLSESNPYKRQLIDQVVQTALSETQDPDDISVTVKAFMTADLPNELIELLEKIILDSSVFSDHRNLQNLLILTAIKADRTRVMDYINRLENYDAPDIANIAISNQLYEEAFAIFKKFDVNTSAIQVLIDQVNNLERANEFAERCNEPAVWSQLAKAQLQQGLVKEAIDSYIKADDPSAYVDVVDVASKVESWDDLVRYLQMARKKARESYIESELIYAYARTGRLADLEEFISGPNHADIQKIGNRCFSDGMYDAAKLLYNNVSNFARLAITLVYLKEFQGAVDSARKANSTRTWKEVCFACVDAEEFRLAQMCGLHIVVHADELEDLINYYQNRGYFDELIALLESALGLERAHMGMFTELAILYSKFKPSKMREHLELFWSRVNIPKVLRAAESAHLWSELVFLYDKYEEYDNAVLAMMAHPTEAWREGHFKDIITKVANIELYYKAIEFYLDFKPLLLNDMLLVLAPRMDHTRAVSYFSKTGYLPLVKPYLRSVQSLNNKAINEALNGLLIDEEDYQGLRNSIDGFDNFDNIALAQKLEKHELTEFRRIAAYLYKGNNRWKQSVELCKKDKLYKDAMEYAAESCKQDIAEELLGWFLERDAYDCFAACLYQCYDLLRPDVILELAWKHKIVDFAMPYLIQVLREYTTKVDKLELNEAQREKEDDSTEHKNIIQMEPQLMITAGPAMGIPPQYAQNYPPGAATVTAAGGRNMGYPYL
UniProt Q9NFU0: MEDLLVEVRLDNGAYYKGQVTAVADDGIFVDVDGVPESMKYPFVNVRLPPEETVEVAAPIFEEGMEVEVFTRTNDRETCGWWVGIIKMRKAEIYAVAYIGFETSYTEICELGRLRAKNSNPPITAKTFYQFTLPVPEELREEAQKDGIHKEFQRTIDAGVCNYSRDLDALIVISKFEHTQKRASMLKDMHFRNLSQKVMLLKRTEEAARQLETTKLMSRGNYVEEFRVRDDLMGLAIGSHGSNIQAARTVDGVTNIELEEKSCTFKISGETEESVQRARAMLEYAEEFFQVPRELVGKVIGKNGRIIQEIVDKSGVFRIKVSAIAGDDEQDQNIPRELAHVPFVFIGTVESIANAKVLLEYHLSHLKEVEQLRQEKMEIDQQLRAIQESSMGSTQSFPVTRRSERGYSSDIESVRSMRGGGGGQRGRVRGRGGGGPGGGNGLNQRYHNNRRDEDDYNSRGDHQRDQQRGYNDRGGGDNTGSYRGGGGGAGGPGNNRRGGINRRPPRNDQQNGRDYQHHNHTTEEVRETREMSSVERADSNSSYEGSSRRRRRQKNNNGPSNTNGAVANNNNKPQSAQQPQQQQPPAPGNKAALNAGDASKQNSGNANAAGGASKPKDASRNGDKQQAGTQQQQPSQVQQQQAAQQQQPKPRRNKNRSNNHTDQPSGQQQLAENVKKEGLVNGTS

This experiment addresses dGOLPH3-mRFP (Drosophila) (UniProt Q9VQ93). Kind of experiment: affinity purification with mass spectrometry; RFP-trap beads on lysate of 3000 adult testes expressing dGOLPH3-RFP (RFP alone as control); lysis buffer 25 mM Tris-HCl pH 7.4, 150 mM NaCl, 1 mM EDTA, 1% NP-40; washes at 4 °C; nanoLC-MS/MS.
Regarding CG4907 (from UniProt Q9VCV7), the binding result was “binds”.

For the substance CG5342 (from UniProt Q9VGL9), the binding entry is reported as “binds”.

CG6790 (from UniProt Q9VGM0): the binding entry was “binds”.

For CG10859 (from UniProt Q9VJY4), the binding result is on record as “binds”.

In the case of Cdc42 (from UniProt P40793 1-191), the binding entry is “binds”.

Turning to Cut up (Ctp) (from UniProt Q24117 1-89), the binding result is given as “binds”.

In the case of “Cytoplasmic dynein light chain 2 (Cdlc2) (from UniProt O96860 1-89)”, the binding result is recorded as “binds”.

As to Ergic53 (from UniProt Q9V3A8), the binding entry is on record as “binds”.

Turning to “Gilgamesh (Gish) (from UniProt Q9VEX2 1-422)”, the binding result was “binds”.

Take “Multi-substrate lipid kinase (Mulk) (from UniProt Q9VL10)”: the binding result is reported as “binds”.

With OstΔ (from UniProt Q7K110), the binding result is “binds”.

For the substance PAPLA1 (from UniProt Q9VLS7 1-2016), the binding result is given as “binds”.

As for Rab1 (from UniProt O18332 1-205), the binding entry is recorded as “binds”.

As to Rab8 (from UniProt O18338 1-207), the binding result is “binds”.

In the case of Rab14 (from UniProt Q86BK8 1-239), the binding entry is recorded as “binds”.

For Sec23 (from UniProt Q9VNF8 1-773), the binding entry is reported as “binds”.

For Sec31 (from UniProt A1Z7J7), the binding result is “binds”.

For Sec63 (from UniProt Q9VS57), the binding result is reported as “binds”.

For “Transitional endoplasmic reticulum 94, TER94 (from UniProt Q7KN62 1-801)”, the binding result is listed as “binds”.

“Uridine diphosphate (UDP)-glucose:glycoprotein glucosyltransferase (from UniProt Q09332 23-1548)”: the binding result is given as “binds”.

“clathrin heavy chain subunit (Chc) (from UniProt P29742 1-1678)”: the binding result was “binds”.

Regarding dFmr1 (from UniProt Q9NFU0 1-684), the binding result is “binds”.
